## Microarray screen: hit calls

Calls as published in the ROBIN set (doi:10.1002/anie.202211358).

Oligonucleotides screened, 5′ to 3′:
TPP: TPP riboswitch RNA three-way junction, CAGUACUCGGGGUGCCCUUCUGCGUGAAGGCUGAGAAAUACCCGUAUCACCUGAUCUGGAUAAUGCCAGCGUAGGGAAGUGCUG. About 160 hits among about 24,000 compounds.
PreQ1: PreQ1 riboswitch RNA pseudoknot, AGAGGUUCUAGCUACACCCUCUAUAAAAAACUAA. From B. subtilis. About 170 hits among about 24,000 compounds.
SAM-II: SAM-II riboswitch RNA pseudoknot, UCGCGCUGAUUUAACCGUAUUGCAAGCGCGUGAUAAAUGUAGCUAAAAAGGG. About 200 hits among about 21,000 compounds.

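Compounds were printed on reactive glass slides in duplicate spots, a dye-labelled oligonucleotide was laid over them, and the fluorescence left after washing was read. For the PreQ1, TPP and SAM-II riboswitches the laboratory earlier reported (doi:10.1038/s41467-019-09493-3) 1 µM RNA, 2 h, and a rule that included a mean Z-score above 3 (spot signal-to-noise against the whole library), a score well above that on a control array, and duplicate spots agreeing (coefficient of variation under 100). The data file gives only the calls; its cut-offs may differ, and compounds hitting several targets are kept. The calls come from the array alone, and fixing a compound to the slide can hide its binding.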 Key: hit = hit, no hit = tested without a hit. This is an unselected part of the compounds tested. A dash means that no call is listed here.

structure | TPP | PreQ1 | SAM-II
CC(=O)c1cnc(Nc2nc(C)c3cc(C)ccc3n2)nc1C | no hit | no hit | no hit
CCCn1c(=N)n(CC(O)c2ccc(C)cc2)c2ccccc21 (stereo not shown) | no hit | no hit | no hit
Cc1cc(C)n(CC(O)CN2c3ccccc3Sc3ccccc32)n1 (stereo not shown) | no hit | no hit | no hit
CC1(C)Cc2c(sc(N=CN3CCCC3)c2C#N)C(C)(C)N1 | no hit | no hit | no hit
O=C(Nc1ccc(F)cc1)OCCOc1ccc(Br)cc1 | no hit | no hit | no hit
CSc1nc(NCCN2CCOCC2)c(C#N)c(-c2ccc(Cl)cc2)n1 | no hit | no hit | -
Cc1cccc(Nc2nc3ccccc3c3nnc(C)n23)c1 | no hit | no hit | no hit
Cc1ccsc1CNc1ccc(C(=O)N2C[C@H](OC(C)C)[C@@H](O)C2)cc1 | no hit | no hit | no hit
N#CC1(c2ccc(-c3cncc(N)c3)cc2)CCCC1 | no hit | no hit | no hit
CCOC(=O)C(C)(C)Oc1ccc(Cl)cc1 | no hit | no hit | no hit
Cc1cc(Nc2ccc(S(=O)(=O)Nc3ccccn3)cc2)nc(C)n1 | no hit | no hit | -
CCOc1ccc(NCC(=O)n2c3ccccc3c3ccccc32)cc1 | no hit | no hit | no hit
Cc1cc(-c2cccc(Br)c2)c(C#N)c(N)n1 | no hit | no hit | no hit
COc1cc(OC)cc(C(=O)N(C)C2CCCCC2O)c1 (stereo not shown) | no hit | no hit | no hit
N#Cc1c(-c2ccco2)cc(-c2ccc(Br)cc2)nc1N | no hit | no hit | no hit
Cc1cc(C)n2nc(C(=O)N3C[C@@H](CN4C[C@@H](C)O[C@@H](C)C4)[C@@H](CO)C3)nc2n1 | no hit | no hit | no hit
Cn1c(=O)c2c(-c3cccc(Br)c3)n(C(CO)(CO)CO)cc2n(C)c1=O | no hit | no hit | -
COc1ccc(C2=C(C)C(NCc3ccc4c(c3)OCO4)=NS2(=O)=O)cc1 | no hit | no hit | -
COc1ccc(C2C(C#N)=C(N)N(c3ccc(F)cc3)C3=C2S(=O)(=O)CC3)cc1OC (stereo not shown) | no hit | no hit | no hit
Cn1c(CC(=O)NC(C)(C)CO)c(Sc2ccccc2)c2ccccc21 | no hit | no hit | no hit
Cc1ccccc1NC(=O)c1c(N)sc2c1CCCC2 | no hit | no hit | no hit
Clc1ccccc1-c1nnc(C(Nc2ccccc2)c2ccccc2)o1 (stereo not shown) | no hit | no hit | no hit
Cc1nn(-c2ccccc2)c(C)c1C1CC(=O)Nc2nc(N)ccc21 (stereo not shown) | no hit | no hit | no hit
OC(COC1CCCCC1)Cn1cnc(-c2ccccc2)c1C1CC1 (stereo not shown) | no hit | no hit | no hit
C#CCSc1nnc(-c2ccco2)[nH]1 | no hit | no hit | no hit
COc1ccc2c(C)c(C(=O)N3CCN[C@H]4CS(=O)(=O)C[C@H]43)oc2c1 | no hit | no hit | no hit
O=S1(=O)C[C@H](NCc2ccco2)[C@@H](S(=O)(=O)c2ccc(Cl)cc2)C1 | no hit | no hit | -
O=C(O)C1(Cc2cccc(Nc3nccs3)n2)CCC(Oc2cccc(Cl)c2F)CC1 (stereo not shown) | no hit | no hit | no hit
CC1(C)CC(=O)C2=C(C1)Nc1ccccc1NC2c1ccco1 (stereo not shown) | no hit | no hit | no hit
CN(C)C[C@@H]1CN(C(=O)CCc2c[nH]c3ccccc23)C[C@@H]1CO | no hit | no hit | no hit
CCN(CC)CCNc1cc(-c2ccccc2)ncn1 | no hit | no hit | -
CCOC(=O)c1c(-c2ccc(F)cc2)csc1N | no hit | no hit | no hit
Cc1cc(C)n(S(=O)(=O)c2ccc(N)cc2)c(=O)n1.Cl | no hit | no hit | no hit
Cc1cc(N2CC[C@@H](c3ccc4c(c3)OCO4)[C@H](O)C2)nc2cc(F)ccc12 | no hit | no hit | no hit
Fc1ccccc1Nc1nc2ccc(Cl)cc2n2cnnc12 | no hit | no hit | -
NCc1cc(NC(=O)c2ccccn2)cc(-c2nc(C3CCOC3)no2)c1 (stereo not shown) | no hit | no hit | no hit
O=C(NCc1cccnc1)C1CNCCN1C(=O)c1noc2c1CCCC2 (stereo not shown) | no hit | no hit | no hit
COc1ccc(CCN2CC(=O)C(c3nc(C)cs3)=C2N)cc1OC | no hit | no hit | -
COc1cc(CNCCNCCO)cc(Br)c1OC | no hit | no hit | no hit
CCc1c(C)nc2sc(C(=O)c3ccc(OC)c(OC)c3)c(N)c2c1C | no hit | no hit | no hit
Cc1ccc(OCC(O)Cn2c(C3CC(=O)N(Cc4ccccc4)C3)nc3ccccc32)cc1 (stereo not shown) | no hit | no hit | -
CCOC(=O)c1c(N)sc(N)c1C(=O)OCC | no hit | no hit | no hit
Cc1ccc(NC2=NS(=O)(=O)c3ccccc32)cc1 | no hit | no hit | no hit
COc1cccc2c1NC(CCc1cccc(N)c1)CC2 (stereo not shown) | no hit | no hit | no hit
Nc1cc(C(F)(F)F)ccc1Sc1nc2ccccc2s1 | no hit | no hit | no hit
CCC(Nc1cccc(OC)c1)C(=O)NCCOc1ccccc1 (stereo not shown) | no hit | no hit | no hit
Cc1c(Cc2ccccc2)c(=O)oc2cc(OCC(O)CN3CCOCC3)ccc12 (stereo not shown) | no hit | no hit | no hit
CC(=O)N1c2ccc(N)cc2C(C)(c2ccccc2)CC1(C)C (stereo not shown) | no hit | no hit | no hit
Cc1ncccc1Oc1ncnc(N2CCN(C)CC(O)C2)c1C (stereo not shown) | no hit | no hit | no hit
Cc1cccc(OCCCCn2c(CCCO)nc3ccccc32)c1 | no hit | no hit | no hit
NCCc1cccc(CN2CCN(Cc3ccc(Cl)cc3)CC2)c1 | no hit | no hit | no hit
COc1ccc(-n2cc(CCO)cn2)cc1C | no hit | no hit | no hit
COCc1n[nH]c(N)c1-c1ccc(F)cc1 | no hit | no hit | no hit
Nc1ccc(-c2nn3cnnc3s2)cc1 | no hit | no hit | no hit
OC[C@H]1OC(O)C[C@@H](O)[C@H]1O (stereo partly shown) | no hit | no hit | no hit
O[C@@]1(CNCc2cccc3[nH]ccc23)CCCN2CCCC[C@@H]21 | no hit | no hit | no hit
Cc1cccc(C)c1OCC(O)CN1C(C)CCCC1C (stereo not shown) | no hit | no hit | no hit
CNC(=O)c1sc(=S)n(-c2ccccc2)c1N | no hit | no hit | no hit
O=C(Nc1cnns1)c1cccc(CN2[C@@H]3CC[C@H]2C[C@@H](O)C3)c1 | no hit | no hit | no hit
CC(=O)N1CCC(N[C@@H]2CC[C@@H]2NC(=O)c2c(C)noc2C)CC1 | no hit | no hit | no hit

Repeated from the top, 4 entries:

structure,TPP,PreQ1,SAM-II
CC(=O)c1cnc(Nc2nc(C)c3cc(C)ccc3n2)nc1C,no hit,no hit,no hit
CCCn1c(=N)n(CC(O)c2ccc(C)cc2)c2ccccc21 (stereo not shown),no hit,no hit,no hit
Cc1cc(C)n(CC(O)CN2c3ccccc3Sc3ccccc32)n1 (stereo not shown),no hit,no hit,no hit
CC1(C)Cc2c(sc(N=CN3CCCC3)c2C#N)C(C)(C)N1,no hit,no hit,no hit